# According to patent publication US12491160B2, “Formulations of a farnesoid X receptor agonist” (ELI LILLY AND COMPANY, priority 2020, dated 2025):
# At least one structure is not confirmed: it was looked up by name or label, or the drawing left a doubt.
# Key:
# FXR [1] = target: T1, FXR (Homo sapiens, UniProt Q96RI1); test: in vitro assay assessing FXR agonist binding to FXR; details: compared with OCA
# T1 sequence (Q96RI1 1-486): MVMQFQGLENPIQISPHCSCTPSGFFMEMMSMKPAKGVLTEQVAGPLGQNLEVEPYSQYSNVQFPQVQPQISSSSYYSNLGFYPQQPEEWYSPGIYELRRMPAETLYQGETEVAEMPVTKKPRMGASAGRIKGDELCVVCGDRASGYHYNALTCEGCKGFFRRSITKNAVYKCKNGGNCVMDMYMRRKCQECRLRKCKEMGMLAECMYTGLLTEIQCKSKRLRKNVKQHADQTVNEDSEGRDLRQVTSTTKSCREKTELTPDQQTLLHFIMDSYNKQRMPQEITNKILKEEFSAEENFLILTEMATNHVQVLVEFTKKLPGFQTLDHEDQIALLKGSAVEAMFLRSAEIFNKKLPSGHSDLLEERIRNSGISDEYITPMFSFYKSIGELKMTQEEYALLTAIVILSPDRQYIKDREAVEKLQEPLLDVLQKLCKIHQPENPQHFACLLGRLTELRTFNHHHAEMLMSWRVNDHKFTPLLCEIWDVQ
# [2] = Compatibility of Compound 1 API with excipients; format: physicochemical; details: amorphous form, one month at 40° C./75% RH in a closed container
# FXR [3] = test: FXR engagement in preclinical animal models; format: in vivo; details: based on pharmacokinetics and pharmacodynamic markers
# FXR [4] = target: T1, FXR; details: published clinical studies; cited from earlier work
SMILES,potency relative to OCA (FXR [1]),"changes in assay, related substances or appearance with excipients [2]",FXR engagement (FXR [3]),clinical efficacy (FXR [4])
"COc1ccc(C23CCC(CN(c4cc(-c5cnn(C(C)(C)C)c5)ccn4)C(=O)[C@H]4CC[C@H](OC(=O)N5CC(O)C5)CC4)(CC2)CC3)cc1C [Compound 1, 4-((4-(1-(tert-butyl)-1H-pyrazol-4-yl)pyridin-2-yl)((4-(4-methoxy-3-methylphenyl)bicyclo[2.2.2]octan-1-yl)methyl)carbamoyl)cyclohexyl 3-hydroxyazetidine-trans-1-carboxylate]",at least thirty-fold more potency than OCA,"no detectable changes in assay, related substances or appearance",sustained FXR engagement,
"CC[C@H]1[C@@H](O)[C@@H]2[C@H](CC[C@]3(C)[C@@H]([C@H](C)CCC(=O)O)CC[C@@H]23)[C@@]2(C)CC[C@@H](O)C[C@@H]12 [OCA, Obeticholic acid]",,,,demonstrated clinical efficacy
